{
  "source": "patent US20220298206",
  "about": "(published 2022)",
  "assay": "general procedure: peptide synthesis; Rink amide AM Resin (substitution 0.66 mill mole/gram)",
  "data": [
    {"substance": "Etelcalcetide", "values": [
      {"measurement": "crude HPLC purity", "setting": "late stage modification step, analytical HPLC, acetate salt", "value": 93.67, "unit": "%"},
      {"measurement": "final HPLC purity", "setting": "whole synthesis, analytical HPLC, scale of the general procedure 1.21 kg resin, hydrochloride salt", "value": 99.70, "unit": "%"},
      {"measurement": "isolated mass", "setting": "whole synthesis, hydrochloride salt", "value": 252, "unit": "grams"},
      {"measurement": "isolated yield", "setting": "whole synthesis, scale of the general procedure 1.21 kg resin, hydrochloride salt", "value": 30.07, "unit": "%"}
    ]}
  ]
}
